Measurements reported in US20250262210A1, “LZTR1 MUTANT TUMORS AND METHODS THEREOF” (The Trustees of Columbia University in the City of New York, priority 2022, published 2025).
Results are given in words; binding and its absence hold for the method and conditions named. For some assays here: In cells and extracts the contact can be indirect. Some entries that bind do so weakly or less than the wild type. For some assays here: Where a sequence is shown, tags or fusion partners need not be part of it.

The chains behind the UniProt entries cited, without tags or fusion partners. Residues count along the entry.
UniProt P29590: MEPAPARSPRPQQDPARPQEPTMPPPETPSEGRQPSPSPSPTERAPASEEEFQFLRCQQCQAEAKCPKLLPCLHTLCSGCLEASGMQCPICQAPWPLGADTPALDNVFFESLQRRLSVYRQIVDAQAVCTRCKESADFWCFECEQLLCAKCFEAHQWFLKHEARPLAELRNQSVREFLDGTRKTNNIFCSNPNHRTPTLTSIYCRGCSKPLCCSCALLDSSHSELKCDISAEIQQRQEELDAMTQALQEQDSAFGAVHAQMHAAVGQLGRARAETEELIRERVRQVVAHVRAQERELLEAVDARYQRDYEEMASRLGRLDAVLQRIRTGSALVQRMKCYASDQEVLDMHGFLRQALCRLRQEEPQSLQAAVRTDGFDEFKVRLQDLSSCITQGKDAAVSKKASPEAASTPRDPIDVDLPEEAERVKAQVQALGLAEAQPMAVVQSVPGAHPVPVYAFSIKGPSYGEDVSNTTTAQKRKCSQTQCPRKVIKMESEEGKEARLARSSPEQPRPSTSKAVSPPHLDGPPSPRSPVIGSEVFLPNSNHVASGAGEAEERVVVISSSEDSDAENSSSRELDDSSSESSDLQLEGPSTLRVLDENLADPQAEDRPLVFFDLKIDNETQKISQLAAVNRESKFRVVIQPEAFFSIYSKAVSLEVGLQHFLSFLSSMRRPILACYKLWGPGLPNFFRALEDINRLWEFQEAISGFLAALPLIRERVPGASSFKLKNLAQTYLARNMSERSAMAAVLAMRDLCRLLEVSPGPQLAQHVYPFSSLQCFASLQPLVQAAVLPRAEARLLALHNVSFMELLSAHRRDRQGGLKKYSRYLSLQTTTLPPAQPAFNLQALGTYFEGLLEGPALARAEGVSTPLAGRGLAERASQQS
UniProt P13611, residues 21-3396: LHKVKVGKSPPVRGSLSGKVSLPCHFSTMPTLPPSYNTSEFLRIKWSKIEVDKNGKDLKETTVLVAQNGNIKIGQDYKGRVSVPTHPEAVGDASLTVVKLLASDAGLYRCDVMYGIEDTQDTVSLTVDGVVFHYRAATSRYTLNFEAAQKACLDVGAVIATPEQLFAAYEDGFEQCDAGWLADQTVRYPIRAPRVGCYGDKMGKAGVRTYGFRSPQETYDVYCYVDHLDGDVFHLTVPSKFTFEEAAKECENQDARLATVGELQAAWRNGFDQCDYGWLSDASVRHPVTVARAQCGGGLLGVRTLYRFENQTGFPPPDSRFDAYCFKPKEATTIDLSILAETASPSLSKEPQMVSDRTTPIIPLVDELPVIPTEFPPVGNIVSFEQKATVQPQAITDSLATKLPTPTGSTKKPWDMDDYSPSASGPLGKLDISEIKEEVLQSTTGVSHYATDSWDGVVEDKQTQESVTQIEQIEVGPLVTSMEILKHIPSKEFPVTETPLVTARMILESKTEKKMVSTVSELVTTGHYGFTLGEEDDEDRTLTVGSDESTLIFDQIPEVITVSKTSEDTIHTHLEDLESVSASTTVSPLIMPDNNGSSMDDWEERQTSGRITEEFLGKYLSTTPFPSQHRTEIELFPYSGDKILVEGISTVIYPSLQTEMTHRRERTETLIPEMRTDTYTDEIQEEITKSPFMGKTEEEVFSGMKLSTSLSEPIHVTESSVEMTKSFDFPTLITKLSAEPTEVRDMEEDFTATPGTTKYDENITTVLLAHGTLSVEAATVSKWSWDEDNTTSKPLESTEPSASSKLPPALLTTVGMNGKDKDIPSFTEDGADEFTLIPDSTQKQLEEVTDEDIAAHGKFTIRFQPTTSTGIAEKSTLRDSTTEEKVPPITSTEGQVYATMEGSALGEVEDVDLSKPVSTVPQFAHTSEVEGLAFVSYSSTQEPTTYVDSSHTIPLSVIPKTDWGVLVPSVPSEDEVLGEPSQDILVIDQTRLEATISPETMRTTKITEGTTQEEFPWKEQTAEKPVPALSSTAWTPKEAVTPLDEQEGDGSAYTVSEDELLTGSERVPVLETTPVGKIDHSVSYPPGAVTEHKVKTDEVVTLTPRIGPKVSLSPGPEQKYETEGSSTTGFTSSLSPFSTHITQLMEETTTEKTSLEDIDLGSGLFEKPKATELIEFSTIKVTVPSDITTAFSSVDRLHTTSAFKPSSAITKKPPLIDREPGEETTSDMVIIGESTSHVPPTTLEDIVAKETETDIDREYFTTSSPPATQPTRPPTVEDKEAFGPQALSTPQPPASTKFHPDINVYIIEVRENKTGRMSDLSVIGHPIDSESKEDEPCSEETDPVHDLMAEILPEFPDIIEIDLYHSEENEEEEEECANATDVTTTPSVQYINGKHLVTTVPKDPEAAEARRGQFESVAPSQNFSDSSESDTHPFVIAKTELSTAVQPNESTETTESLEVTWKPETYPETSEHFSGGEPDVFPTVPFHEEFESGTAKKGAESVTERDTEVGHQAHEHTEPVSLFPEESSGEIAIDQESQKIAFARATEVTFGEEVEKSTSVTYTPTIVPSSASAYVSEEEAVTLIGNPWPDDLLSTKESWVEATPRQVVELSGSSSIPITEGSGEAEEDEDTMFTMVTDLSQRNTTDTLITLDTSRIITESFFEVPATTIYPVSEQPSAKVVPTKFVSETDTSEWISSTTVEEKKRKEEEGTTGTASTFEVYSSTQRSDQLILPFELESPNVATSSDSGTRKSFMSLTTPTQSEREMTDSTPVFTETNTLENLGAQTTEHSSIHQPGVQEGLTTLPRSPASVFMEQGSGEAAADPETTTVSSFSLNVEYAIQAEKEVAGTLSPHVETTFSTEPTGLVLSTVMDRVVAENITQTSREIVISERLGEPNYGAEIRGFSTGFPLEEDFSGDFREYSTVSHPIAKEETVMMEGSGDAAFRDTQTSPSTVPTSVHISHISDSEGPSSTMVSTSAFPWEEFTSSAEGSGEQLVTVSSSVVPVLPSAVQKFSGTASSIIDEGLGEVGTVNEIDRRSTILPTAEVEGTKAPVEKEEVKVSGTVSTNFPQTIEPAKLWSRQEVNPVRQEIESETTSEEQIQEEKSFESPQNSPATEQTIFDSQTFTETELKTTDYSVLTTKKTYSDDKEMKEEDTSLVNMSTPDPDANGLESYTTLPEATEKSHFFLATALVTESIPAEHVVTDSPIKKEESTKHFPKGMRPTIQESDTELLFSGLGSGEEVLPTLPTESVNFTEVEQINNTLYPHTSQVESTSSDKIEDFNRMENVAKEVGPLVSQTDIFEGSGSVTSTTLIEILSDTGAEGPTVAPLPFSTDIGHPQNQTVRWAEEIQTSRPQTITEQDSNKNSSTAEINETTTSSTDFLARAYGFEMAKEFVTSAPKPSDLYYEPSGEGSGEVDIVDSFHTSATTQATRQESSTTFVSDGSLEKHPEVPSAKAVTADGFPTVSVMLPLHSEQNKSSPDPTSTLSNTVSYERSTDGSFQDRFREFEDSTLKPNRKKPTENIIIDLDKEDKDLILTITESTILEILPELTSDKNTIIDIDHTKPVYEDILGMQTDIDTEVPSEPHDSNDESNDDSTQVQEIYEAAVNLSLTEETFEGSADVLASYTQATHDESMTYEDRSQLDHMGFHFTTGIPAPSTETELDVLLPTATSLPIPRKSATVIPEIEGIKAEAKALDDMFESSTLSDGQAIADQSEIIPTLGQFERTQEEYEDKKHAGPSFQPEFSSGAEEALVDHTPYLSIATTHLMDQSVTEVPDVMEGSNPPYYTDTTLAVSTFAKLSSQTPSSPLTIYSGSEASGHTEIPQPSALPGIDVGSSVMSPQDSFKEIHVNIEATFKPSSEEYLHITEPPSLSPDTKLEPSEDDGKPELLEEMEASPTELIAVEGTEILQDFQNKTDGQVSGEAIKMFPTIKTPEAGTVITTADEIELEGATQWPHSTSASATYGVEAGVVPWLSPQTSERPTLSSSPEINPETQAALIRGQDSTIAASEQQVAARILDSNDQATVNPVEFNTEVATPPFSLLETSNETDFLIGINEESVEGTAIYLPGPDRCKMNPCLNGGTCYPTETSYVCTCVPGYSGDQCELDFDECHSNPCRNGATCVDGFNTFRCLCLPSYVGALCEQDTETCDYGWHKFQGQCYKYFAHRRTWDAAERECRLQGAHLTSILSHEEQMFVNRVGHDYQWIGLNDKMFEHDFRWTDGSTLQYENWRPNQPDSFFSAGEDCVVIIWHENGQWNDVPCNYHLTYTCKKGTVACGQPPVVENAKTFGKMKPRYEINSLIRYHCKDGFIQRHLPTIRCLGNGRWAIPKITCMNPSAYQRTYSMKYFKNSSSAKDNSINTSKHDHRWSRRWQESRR
UniProt O60318: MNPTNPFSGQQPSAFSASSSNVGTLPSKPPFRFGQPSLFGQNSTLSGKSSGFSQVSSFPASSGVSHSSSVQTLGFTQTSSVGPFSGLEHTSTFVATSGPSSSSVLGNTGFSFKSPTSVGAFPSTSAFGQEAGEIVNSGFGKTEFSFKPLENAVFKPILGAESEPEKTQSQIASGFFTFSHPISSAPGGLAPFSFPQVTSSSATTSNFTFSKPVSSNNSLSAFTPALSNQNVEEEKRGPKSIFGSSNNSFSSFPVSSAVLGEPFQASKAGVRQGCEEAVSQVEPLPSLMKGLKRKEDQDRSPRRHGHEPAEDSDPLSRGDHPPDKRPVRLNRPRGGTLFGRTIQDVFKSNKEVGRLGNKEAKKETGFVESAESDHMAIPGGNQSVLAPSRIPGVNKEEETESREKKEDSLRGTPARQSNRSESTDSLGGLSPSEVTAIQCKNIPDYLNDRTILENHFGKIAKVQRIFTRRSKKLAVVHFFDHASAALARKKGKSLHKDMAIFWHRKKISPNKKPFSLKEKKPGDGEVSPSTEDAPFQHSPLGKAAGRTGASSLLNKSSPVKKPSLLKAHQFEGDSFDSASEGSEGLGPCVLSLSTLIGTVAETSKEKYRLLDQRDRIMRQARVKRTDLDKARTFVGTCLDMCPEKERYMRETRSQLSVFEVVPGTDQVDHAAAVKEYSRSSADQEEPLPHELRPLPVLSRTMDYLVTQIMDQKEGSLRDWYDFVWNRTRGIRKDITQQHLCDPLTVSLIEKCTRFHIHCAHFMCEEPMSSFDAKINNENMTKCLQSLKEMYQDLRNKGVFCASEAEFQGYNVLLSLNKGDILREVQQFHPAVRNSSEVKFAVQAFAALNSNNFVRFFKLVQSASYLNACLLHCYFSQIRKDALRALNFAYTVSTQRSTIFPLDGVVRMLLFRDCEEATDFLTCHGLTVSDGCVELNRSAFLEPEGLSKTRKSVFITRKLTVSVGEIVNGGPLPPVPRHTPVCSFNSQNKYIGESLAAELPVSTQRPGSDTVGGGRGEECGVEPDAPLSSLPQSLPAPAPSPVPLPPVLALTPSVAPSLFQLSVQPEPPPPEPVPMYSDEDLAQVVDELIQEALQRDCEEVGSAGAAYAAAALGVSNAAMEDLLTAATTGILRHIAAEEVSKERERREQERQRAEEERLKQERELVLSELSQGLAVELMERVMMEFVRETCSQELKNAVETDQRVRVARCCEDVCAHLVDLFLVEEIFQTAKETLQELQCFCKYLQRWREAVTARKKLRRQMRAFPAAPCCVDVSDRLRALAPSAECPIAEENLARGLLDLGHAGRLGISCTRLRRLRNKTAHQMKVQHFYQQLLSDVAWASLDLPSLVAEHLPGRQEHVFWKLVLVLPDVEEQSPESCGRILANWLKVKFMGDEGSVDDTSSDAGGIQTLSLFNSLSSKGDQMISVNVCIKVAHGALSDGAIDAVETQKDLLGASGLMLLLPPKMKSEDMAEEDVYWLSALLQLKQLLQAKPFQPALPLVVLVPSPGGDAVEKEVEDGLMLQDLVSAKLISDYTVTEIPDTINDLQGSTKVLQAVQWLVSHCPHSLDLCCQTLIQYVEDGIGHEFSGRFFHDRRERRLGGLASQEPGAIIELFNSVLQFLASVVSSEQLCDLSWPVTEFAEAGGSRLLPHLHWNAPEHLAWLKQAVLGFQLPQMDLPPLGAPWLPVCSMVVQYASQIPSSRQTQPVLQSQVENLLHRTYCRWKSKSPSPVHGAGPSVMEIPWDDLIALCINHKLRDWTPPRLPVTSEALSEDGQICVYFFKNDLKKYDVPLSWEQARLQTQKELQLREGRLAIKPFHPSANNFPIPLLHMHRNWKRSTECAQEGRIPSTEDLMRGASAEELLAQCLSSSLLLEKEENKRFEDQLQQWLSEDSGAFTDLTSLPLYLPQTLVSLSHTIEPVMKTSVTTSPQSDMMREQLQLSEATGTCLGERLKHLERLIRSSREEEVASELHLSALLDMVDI
UniProt Q92963: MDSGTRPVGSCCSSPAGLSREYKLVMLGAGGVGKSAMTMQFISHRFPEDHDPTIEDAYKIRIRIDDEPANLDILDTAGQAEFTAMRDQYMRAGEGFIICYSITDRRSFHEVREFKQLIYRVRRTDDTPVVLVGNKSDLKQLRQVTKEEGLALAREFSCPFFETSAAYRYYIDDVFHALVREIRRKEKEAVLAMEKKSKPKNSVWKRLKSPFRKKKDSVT

Assays:
LZTR1-GFP (human) = molecular target: T1, LZTR1-GFP (human) (UniProt Q8N653); assay: co-immunoprecipitation with FLAG affinity matrix, 293T cells, western blot
T1 sequence (looked up): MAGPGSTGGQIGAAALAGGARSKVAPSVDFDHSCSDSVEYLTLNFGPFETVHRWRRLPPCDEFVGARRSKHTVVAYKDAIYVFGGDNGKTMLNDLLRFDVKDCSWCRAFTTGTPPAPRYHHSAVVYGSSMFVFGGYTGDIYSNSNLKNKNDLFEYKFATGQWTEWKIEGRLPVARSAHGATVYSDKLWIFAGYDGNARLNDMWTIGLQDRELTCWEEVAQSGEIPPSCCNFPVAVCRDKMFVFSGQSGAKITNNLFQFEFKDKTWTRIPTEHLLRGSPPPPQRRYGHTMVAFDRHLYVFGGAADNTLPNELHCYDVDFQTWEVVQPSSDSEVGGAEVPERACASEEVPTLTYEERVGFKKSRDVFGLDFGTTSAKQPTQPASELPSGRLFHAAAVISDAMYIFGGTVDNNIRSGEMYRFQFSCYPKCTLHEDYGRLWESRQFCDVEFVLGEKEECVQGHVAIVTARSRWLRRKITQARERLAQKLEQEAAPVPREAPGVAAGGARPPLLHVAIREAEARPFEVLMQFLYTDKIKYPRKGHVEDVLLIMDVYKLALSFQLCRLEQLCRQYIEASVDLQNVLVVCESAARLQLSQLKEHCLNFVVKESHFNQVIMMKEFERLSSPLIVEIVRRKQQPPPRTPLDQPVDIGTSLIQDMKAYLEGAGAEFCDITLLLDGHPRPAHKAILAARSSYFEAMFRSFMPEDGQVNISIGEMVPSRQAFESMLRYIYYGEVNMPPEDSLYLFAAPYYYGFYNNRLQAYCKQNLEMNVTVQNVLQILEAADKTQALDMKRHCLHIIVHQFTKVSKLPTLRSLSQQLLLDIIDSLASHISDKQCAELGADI

PML (human) = PML (human) (UniProt P29590); assay: IP/MS, LZTR1 R810W-FLAG, U87
FASTKD2 (human) = molecular target: T2, FASTKD2 (human) (UniProt Q9NYY8); assay: IP/MS, LZTR1 R810W-FLAG, U87
T2 sequence (looked up): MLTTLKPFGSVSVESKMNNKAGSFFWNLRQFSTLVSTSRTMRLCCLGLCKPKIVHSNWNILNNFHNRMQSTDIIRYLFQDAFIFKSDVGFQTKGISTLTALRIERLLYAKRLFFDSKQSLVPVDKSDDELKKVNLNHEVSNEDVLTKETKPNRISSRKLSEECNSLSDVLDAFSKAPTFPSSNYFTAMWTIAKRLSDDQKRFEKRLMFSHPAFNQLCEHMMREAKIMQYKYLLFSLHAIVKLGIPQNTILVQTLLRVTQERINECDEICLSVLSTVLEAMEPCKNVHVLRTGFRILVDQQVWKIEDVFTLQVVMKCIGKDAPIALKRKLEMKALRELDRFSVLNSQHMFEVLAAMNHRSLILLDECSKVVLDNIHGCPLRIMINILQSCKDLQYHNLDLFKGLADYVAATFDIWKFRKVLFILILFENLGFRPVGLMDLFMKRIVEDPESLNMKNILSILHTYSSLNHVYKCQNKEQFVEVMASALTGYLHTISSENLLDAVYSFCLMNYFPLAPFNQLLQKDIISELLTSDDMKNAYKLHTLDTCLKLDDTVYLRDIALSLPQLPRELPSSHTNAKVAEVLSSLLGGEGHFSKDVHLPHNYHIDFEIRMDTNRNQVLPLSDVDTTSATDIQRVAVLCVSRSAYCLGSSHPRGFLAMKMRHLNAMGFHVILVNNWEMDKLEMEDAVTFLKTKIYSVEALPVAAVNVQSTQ

SHC1 (human) = molecular target: T3, SHC1 (human) (UniProt P29353); assay: IP/MS, LZTR1 R810W-FLAG, U87
T3 sequence (looked up): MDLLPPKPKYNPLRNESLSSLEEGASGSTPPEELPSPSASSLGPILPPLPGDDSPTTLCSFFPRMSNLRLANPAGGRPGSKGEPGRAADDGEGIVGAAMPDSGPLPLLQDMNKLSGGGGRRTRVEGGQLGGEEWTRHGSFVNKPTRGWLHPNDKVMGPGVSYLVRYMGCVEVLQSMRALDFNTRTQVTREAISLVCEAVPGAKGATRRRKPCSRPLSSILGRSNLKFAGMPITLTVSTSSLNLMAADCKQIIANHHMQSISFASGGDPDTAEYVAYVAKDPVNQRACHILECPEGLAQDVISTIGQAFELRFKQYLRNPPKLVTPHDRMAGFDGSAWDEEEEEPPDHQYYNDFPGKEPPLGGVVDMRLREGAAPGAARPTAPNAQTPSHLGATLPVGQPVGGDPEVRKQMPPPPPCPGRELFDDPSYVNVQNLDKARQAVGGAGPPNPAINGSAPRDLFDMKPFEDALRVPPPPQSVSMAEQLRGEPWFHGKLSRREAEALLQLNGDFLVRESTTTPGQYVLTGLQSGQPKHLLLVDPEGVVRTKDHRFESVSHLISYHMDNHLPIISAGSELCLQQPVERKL

VCAN (human) = VCAN (human) (UniProt P13611); assay: IP/MS, LZTR1 R810W-FLAG, U87
TMC04 (human) = molecular target: T4, TMC04 (human) (UniProt Q5TGY1); assay: IP/MS, LZTR1 R810W-FLAG, U87
T4 sequence (looked up): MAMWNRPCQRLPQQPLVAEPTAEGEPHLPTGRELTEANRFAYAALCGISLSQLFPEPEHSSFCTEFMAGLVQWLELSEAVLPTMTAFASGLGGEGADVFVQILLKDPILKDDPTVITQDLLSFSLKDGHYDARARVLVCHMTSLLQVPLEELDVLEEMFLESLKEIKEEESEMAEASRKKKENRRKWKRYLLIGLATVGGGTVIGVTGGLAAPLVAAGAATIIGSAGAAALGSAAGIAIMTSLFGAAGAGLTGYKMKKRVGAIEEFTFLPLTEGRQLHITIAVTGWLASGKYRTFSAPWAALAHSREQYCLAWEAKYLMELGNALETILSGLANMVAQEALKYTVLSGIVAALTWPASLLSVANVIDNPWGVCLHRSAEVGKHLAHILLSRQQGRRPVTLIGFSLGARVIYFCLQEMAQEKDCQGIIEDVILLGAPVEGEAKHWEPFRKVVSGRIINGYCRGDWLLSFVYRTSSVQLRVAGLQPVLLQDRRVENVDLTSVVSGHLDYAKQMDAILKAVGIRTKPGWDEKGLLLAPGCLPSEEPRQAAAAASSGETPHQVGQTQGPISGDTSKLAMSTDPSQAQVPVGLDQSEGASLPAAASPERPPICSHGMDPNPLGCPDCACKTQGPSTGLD

FBN1 (human) = FBN1 (human) (UniProt P35555); assay: IP/MS, LZTR1 R810W-FLAG, U87
MCM3AP (human) = MCM3AP (human) (UniProt O60318); assay: IP/MS, LZTR1 R810W-FLAG, U87

Measured: binding

FLAG-RIT1 (from UniProt Q92963 1-219)
binds: LZTR1-GFP (human)

LZTR1 R810W-FLAG (from UniProt Q8N653 1-840)
binds: PML (human) | FASTKD2 (human) | SHC1 (human) | VCAN (human) | TMC04 (human) | FBN1 (human) | MCM3AP (human)
